SMILES strings stand for the structures. Where a SMILES comes first, the peptide text is derived from it. [ ]: non-standard residue; d: D form. Dmt = Cc1cc(O)cc(C)c1C[C@H](N)C(=O)O

The test system of this data set is C57BL/6 mice subjected to MCAO. In words: Infarct size, swelling and cerebral blood flow after MCAO. The note with it: vs vehicle. It is filed as in vivo. The procedure: FIG. 32A-32F. Effect of SS-31 peptide on ischemia-induced infarct size and swelling in C57BL/6 mice. Shown are representative serial sections (1.2 mm apart) stained with Cresyl Violet from mice subjected to 30 min (A) and 20 min (B) MCAO and treated with vehicle (Veh) or SS-31 (2 mg/kg body weight) immediately after reperfusion, 6 h, 24 h, and 48 h.
To address whether SS-31-induced attenuation in GSH depletion is associated with neuroprotection, mice were subjected to 30 or 20 min MCAO and then treated with vehicle or SS-31 (2 mg/kg, i.p.) upon reperfusion) and at 6 h, 24 h, 48 h after MCAO. Infarct volumes and hemispheric swelling were determined at 3 days after ischemia.

On to `Cc1cc(O)cc(C)c1C[C@H](NC(=O)[C@H](N)CCCNC(=N)N)C(=O)N[C@@H](CCCCN)C(=O)N[C@@H](Cc1ccccc1)C(N)=O` [SS-31, D-Arg-2′6′-Dmt-Lys-Phe-NH2] (H-[dR][Dmt]KF-NH2; N-terminus assumed), for which the “cerebral blood flow (CBF) reduction during MCAO” value was “no difference” and the “reperfusion at 10 min” value is “no difference”.
